Measurements from PubChem BioAssay AID652054 (National Center for Advancing Translational Sciences (NCATS), 2013).
Out of some 360,000 compounds screened, about 9,100 (2.5%) were called active. This list was built around the results that the source calls inconclusive (neither active nor inactive); the mix of calls is not that of the screen. Rule as the data show it: active = max response below about -50%; inconclusive = no clear call, values can overlap the other calls; inactive = above that.

Amino acid sequences for entries named in this document (tags omitted).
UniProt P35462, whole entry, looked up: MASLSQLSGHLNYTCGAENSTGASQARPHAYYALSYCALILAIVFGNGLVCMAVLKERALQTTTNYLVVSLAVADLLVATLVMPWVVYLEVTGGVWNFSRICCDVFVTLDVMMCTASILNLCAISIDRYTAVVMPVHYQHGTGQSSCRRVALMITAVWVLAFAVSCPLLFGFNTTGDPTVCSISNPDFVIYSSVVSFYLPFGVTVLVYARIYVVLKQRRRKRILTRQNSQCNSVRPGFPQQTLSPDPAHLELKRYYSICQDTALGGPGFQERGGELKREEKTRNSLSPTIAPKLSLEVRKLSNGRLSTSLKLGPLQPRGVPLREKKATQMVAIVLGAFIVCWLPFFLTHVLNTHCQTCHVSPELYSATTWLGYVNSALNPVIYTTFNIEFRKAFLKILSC

The molecules below were run against D(3) dopamine receptor (Homo sapiens) (UniProt P35462) (assay: qHTS of D3 Dopamine Receptor Antagonist: qHTS). Conditions: D3R cells, DiscoveRx beta-arrestin luminescence, antagonist mode; active compounds read low.
Procedure, shortened: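 Cells plated overnight at 1500 cells/well, then exposed to library compounds with dopamine controls for 90 minutes at 37 degrees C. DiscoveRx reagent added for 30–60 minutes at room temperature; luminescence read, quantitative HTS format.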
% is scaled to controls: 0 for no effect and ±100 for the full control effect.

SMILES | max response, negative = inhibition
CCN(CC)S(=O)(=O)c1ccc(Cl)c(NC(=S)NC(=O)C2CCCC2)c1 | inconclusive: -33.7%
CCCn1c(NC(=O)c2ccccc2)nc2ccccc21 | inconclusive: -38.2%
O=C(NNC(=O)c1ccc2ccccc2c1)Nc1ccc(F)cc1 | inconclusive: -44.9%
O=C(O)C1C2C=CC(C2)C1C(=O)Nc1cccc(Cl)c1 (stereo not given) | inactive: 6.26%
CC(=O)OCCCNc1cc(Sc2ccc(C)cc2)c2nonc2c1[N+](=O)[O-] | active: -73.2%
N#CCC(=O)NN=C1CCCCCCCCCCC1 | inconclusive: -49.1%
COc1ccccc1N1CCN(CCCOc2ccc(F)cc2)CC1 | active: -90.7%
CCOc1ccc(C(=O)NCCC(=O)N2CCC3(CC2)NCCc2[nH]cnc23)cc1OCC | inactive: -1.36%
COc1ccc(OC)c(NC(=O)c2ccc(CN3CCc4ccccc4C3)cc2)c1 | active: -109%
COc1cccc(C2=CC(c3cc(OC)ccc3OC)n3nnnc3N2)c1 (stereo not given) | inconclusive: -31.6%
Cc1ccccc1CN1CCN(Cc2ccccc2C(F)(F)F)CC1 | inconclusive: -43.9%
O=C(Nc1ccc(Cc2ccncc2)cc1)c1ccc([N+](=O)[O-])o1 | inconclusive: -41.6%
Cc1ccc(C)c(NC(=S)NNC(=O)c2csc3c2CCC(C)C3)c1 (stereo not given) | active: -59.7%
CC(C)c1ccc(CN2CCC(C(=O)NCc3cccnc3)CC2)cc1 | active: -83.4%
CCCN1CCC(C(=O)NC(c2ccc(Cl)cc2)c2ccsc2)CC1 (stereo not given) | active: -56.2%
CCCCCC(=O)Nc1ccccc1N1CCN(c2ccccc2)CC1 | inconclusive: -31.1%
COc1ccc(Cl)cc1NC(=O)NCCCl | inconclusive: -40.7%
Cc1ccn2cc(C34CC5CC(CC(C5)C3)C4)nc2c1 | inactive: -17.8%
O=C(COC(=O)c1cccnc1)Nc1ccccc1 | inactive: -26.7%
COCOc1cccc(CN2CCC(C)(Oc3ccc(SC)cc3)C2)c1 (stereo not given) | inconclusive: -44.7%
COc1cc(CCCN2CCNC[C@@H]2Cc2ccccc2)cc(OC)c1OC | inconclusive: -37.9%
CCOC(=O)C1=CN(Cc2cccc(F)c2)S(=O)(=O)N(C)C1c1ccccc1 (stereo not given) | inconclusive: -30.3%
Cc1cc(Cl)ccc1N=c1ssnc1Cl | inconclusive: -39.4%

SMILES | max response, negative = inhibition
COc1ccc(C)cc1NC(=O)C(Sc1nnc(-c2ccncc2)n1-c1ccc(Cl)cc1)c1ccccc1 (stereo not given) | inconclusive: -30.6%
COc1ccccc1CCn1cnc(C)c1CC(C)C | active: -77.9%
C#CCOCCOCCOCCNc1nc(N2CCN(C(=O)[C@H](CCCCN)n3cc(CCCC)nn3)CC2)nc(N2CCN(C(=O)[C@H](Cc3ccc(O)cc3)n3cc(CCO)nn3)CC2)n1 | inconclusive: -30.2%
Cc1ccc(S(=O)(=O)NCCCCCC(N)=O)cc1 | inconclusive: -39.8%
CC1(C)Cc2[nH]c3ccccc3c2C(C)(C)N1 | inconclusive: -30.4%
CCC(=O)N1CCCc2cc(S(=O)(=O)N3CCN(c4ncccn4)CC3)ccc21 | inactive: 4.03%
CN1CCN(c2ccc(S(=O)(=O)N3CCCCC3)cc2NC(=O)Cc2ccc(Cl)cc2)CC1 | inconclusive: -49.8%
Cc1ccc(-n2cccn2)c(CN2CCCC(C(=O)c3ccc4c(c3)OCO4)C2)c1 (stereo not given) | active: -63%
CCc1ccc(CN2CCC(CO)(CC3CCCCO3)CC2)o1 (stereo not given) | inconclusive: -38%
Cc1cccc(NC(=O)CSc2nc3c(c(=O)[nH]2)CCC3)c1C | inconclusive: -39.3%
O=C(NC1=NCCS1)c1ccc(C(F)(F)F)cc1 | inconclusive: -31.4%
Clc1ccc(-c2nc(Cc3ccccc3Cl)no2)cc1 | inconclusive: -42.1%
CC(C)c1ccc2[nH]c(O)c(N=NC(=O)c3cccc(S(=O)(=O)Nc4ccc(Cl)cc4)c3)c2c1 | inconclusive: -36.8%
CN(Cc1ccccc1)CC(O)COc1ccc(CNCc2cccnc2)cc1 (stereo not given) | inconclusive: -33.5%
COCCCNC(=O)COc1ccc2oc3c(c2c1)CCCC3 | inactive: -2.74%
O=C1Oc2ccccc2C(=O)/C1=C\N1CCN(c2ccccc2)CC1 | inconclusive: -43%
CC(=O)Nc1ccc(C(=O)OCC(=O)N2CCCC2=O)cc1 | inconclusive: -39%
O=C(c1ccc(Cl)cc1)N1CCN(CCc2ccccn2)CC1 | inconclusive: -31.2%
COc1cc(Br)cc(/C=N/c2ncn[nH]2)c1O | inconclusive: -46.7%
O=C(CCC(=O)N1CCN(C2CCCCC2)CC1)Nc1nnc(C(F)(F)F)s1 | inconclusive: -33.4%
CCC(NC(=O)c1ccc([N+](=O)[O-])cc1[N+](=O)[O-])c1ccccc1 (stereo not given) | inconclusive: -36.3%
Clc1ccc2nc(C3CCCCC3)c(Cc3ccsc3)n2c1 | inactive: 18.4%
CC(=O)Nc1ccc(CNc2nc3cc(-c4ccsc4)sc3c(=O)n2C)cc1 | inactive: 40.1%

For convenience, part of the list above.
SMILES | max response, negative = inhibition
COc1cc(Br)cc(/C=N/c2ncn[nH]2)c1O | inconclusive: -46.7%
O=C(CCC(=O)N1CCN(C2CCCCC2)CC1)Nc1nnc(C(F)(F)F)s1 | inconclusive: -33.4%
CCC(NC(=O)c1ccc([N+](=O)[O-])cc1[N+](=O)[O-])c1ccccc1 (stereo not given) | inconclusive: -36.3%
Clc1ccc2nc(C3CCCCC3)c(Cc3ccsc3)n2c1 | inactive: 18.4%
CC(=O)Nc1ccc(CNc2nc3cc(-c4ccsc4)sc3c(=O)n2C)cc1 | inactive: 40.1%

(cont.)

SMILES | max response, negative = inhibition
COc1ccc(C2=NN(C(=O)CSc3nc(=O)n4cccc(C)c4n3)C(c3ccc(C)cc3)C2)cc1 (stereo not given) | inconclusive: -37.4%
Cc1c(Cl)cccc1NC(=O)CN1CCN(CCO)CC1 | inconclusive: -30.8%
O=[N+]([O-])c1ccc(CSC2=NCCS2)cc1 | inconclusive: -35.7%
O=C(CN1CCC(n2nnc3cc(F)ccc32)CC1)NCc1ccco1 | inconclusive: -37.9%
CC(=O)Nc1ccc(NC(=O)COc2c(C)cc(Br)cc2C)cc1 | inactive: -2.83%
CC(OC(=O)c1cc(=O)[nH]c2ccccc12)C(=O)NC1CCCCC1C (stereo not given) | inactive: -7%
COc1cccc(C=NCC(C)N=Cc2cccc(OC)c2O)c1O (stereo not given) | active: -103%
c1ccc2c(c1)COC(CNC1CCCCC1)OC2 | inconclusive: -30.9%
COc1ccc(OCC(=O)N2N=C(C)CC2(O)C(F)(F)F)cc1 (stereo not given) | inconclusive: -37.4%
Cc1cc(C)cc(N(CC(=O)NCC2CCCO2)S(=O)(=O)c2c(C)noc2C)c1 (stereo not given) | inconclusive: -35.9%
CSc1ccc(-c2nc(CSCC(=O)NCCCN3CCOCC3)c(C)o2)cc1 | inconclusive: -34.2%
Cc1ccc(NC2=C/C(=N\S(=O)(=O)c3cccs3)c3ccccc3C2=O)c(C)c1 | active: -91.3%
Cc1ccc(CNC(=O)C2CCN(c3nc(C)cc(C)n3)CC2)cc1 | inactive: -5.33%
C=CCNCCOCCOc1ccc(C)cc1Br | inconclusive: -31.6%
CC1CCCCC1NC(=O)c1ccc(S(=O)(=O)N2CCCC2)cc1 (stereo not given) | inconclusive: -42.4%
O=C(O)c1cccc2sc3cc(Cl)ccc3c(=O)c12 | inactive: -5.49%
COC(=O)Nc1ncc(CN2CCC(c3ccccc3)CC2)s1 | active: -54.3%
C/C=C/c1ccc(OCC(=O)O)c(OC)c1 | inactive: -0.146%
Cc1oc(-c2ccccc2F)nc1CN1CCC(C(=O)NCc2cccnc2)CC1 | inconclusive: -44%
Cc1[nH]n(S(=O)(=O)Cc2ccccc2)c(=O)c1N=Nc1ccccc1Cl | inconclusive: -36.7%
CCC(C)(C)NC(=O)CN(CCc1cccc(C)c1)C(=O)c1csnn1 | inactive: -0.976%
Cc1cc(=O)c(C(=O)O)cn1Nc1ccc(Cl)cc1 | active: -52.8%
S=C1NC(C23CC4CC(CC(C4)C2)C3)=CC(c2ccc3c(c2)OCO3)N1 (stereo not given) | inconclusive: -44.7%

SMILES | max response, negative = inhibition
Nc1ccc(C23CC4CC(CC(O)(C4)C2)C3)cc1 | active: -50.3%
COc1ccc(OCC(=O)Nc2ccc3c(c2)nc(CCN2CCOCC2)n3C)cc1 | inconclusive: -32.6%
O=C(NC1CCCCC1)C(c1ccnc2ccccc12)n1c(=O)c(-c2ccco2)nc2ccccc21 (stereo not given) | inconclusive: -48.2%
CCOC(=O)c1cc([N+](=O)[O-])cc([N+](=O)[O-])c1Sc1ncnc2nc[nH]c12 | active: -86%
O=C(Cc1cccc(NC(=O)C2CCCN(C(=O)c3ccccc3)C2)c1)Nc1ccc(C(=O)N2CCOCC2)cc1 (stereo not given) | inactive: 1.59%
CCc1sc(C(=O)Nc2nc(-c3ccccn3)cs2)cc1C | inconclusive: -42.6%
Cc1ccc(Cl)c(NC(=S)N(CCCN2CCOCC2)Cc2ccco2)c1 | inconclusive: -30.8%
CCOC(=O)C1CCCN(Cc2cccc(Cl)c2)C1 (stereo not given) | active: -60.5%
CNCCOc1ccccc1-c1ccccc1 | inconclusive: -30.9%
COC(=O)C1=CN(c2ccc(F)cc2)C(N)=C(C#N)C1c1ccc(-c2ccccc2)cc1 (stereo not given) | inconclusive: -35.5%
COc1ccc([N+](=O)[O-])cc1NC(=O)Cn1ccsc1=N | inconclusive: -31.7%
COc1cc(/C=C/C(=O)N2C(=O)c3cccc(N)c3C2=O)cc(OC)c1OC | active: -82%
Cc1ccsc1C(=O)Nc1nnc(-c2ccco2)o1 | active: -65.1%
COc1cc(CNc2ncnc3c2ncn3[C@H]2CN(CCc3ccccc3)C[C@@H](CO)O2)cc(OC)c1OC | inconclusive: -36%
CCOc1cccc(NCc2cc3c(C(C)(C)C)nn(-c4ccccc4)c3[nH]c2=O)c1 | inconclusive: -34.9%
CC1(C)CC(O)C(CCC(O)c2ccccc2)C(C)(C)N1 (stereo not given) | inconclusive: -34.8%
CSc1cnn(CCC#N)c(=O)n1 | inactive: 5.98%
COc1cc(S(=O)(=O)N(Cc2ccco2)C2CCCC2)ccc1-n1cnnn1 | inconclusive: -33.2%
O=C(NCc1ccccn1)[C@@H]1CCCN1C(=O)[C@@H]1CCCN1C(=O)c1ccccc1 | inconclusive: -43%
CC[C@@H]1CC=C[C@H]2[C@H]1C(=O)N(Cc1ccccc1)[C@H]2c1ccoc1 | inconclusive: -38.8%
O=C(Cc1ccc([N+](=O)[O-])cc1)NCCc1ccc2c(c1)OCO2 | inconclusive: -30.5%
